Measurements reported in PubChem BioAssay AID504784 (Drosophila RNAi Screening Center, 2011)
The screen tested about 17,000 reagents; this is an unselected part of those that have a named target and a result. 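Each column is one replicate's B-score; the combined score over replicates was not deposited, so single values may mislead.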

Purpose: 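Fly genes whose silencing alters how much lipid cells keep in droplets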 (primary screen)
System: Drosophila Kc167 embryonic cells
Knock-down reagent: long dsRNA against Drosophila genes, about 250 ng dsRNA per well
Timing: 4 days
Conditions: cells fed 400 µM oleic acid bound to BSA
Measurement: 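Microscope images give a droplet-to-nucleus area ratio, taken as log and converted to a screen-wide B-score; higher values mean greater lipid storage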
Reading the numbers: droplet/nuclear area B-score: higher = more stored lipid (overstorage)

The first 3 records as a preview:
target gene | amplicon | droplet/nuclear area B-score, replicate 1 | droplet/nuclear area B-score, replicate 2 | droplet/nuclear area B-score, replicate 3
Syngr | DRSC06003 | -0.00107 | -0.00252 | –
CG4271 | DRSC00649 | 0.632 | -0.387 | –
prg | DRSC03324 | -0.258 | -3.56 | –

Results, from the first entry:
target gene | amplicon | droplet/nuclear area B-score, replicate 1 | droplet/nuclear area B-score, replicate 2 | droplet/nuclear area B-score, replicate 3
Syngr | DRSC06003 | -0.00107 | -0.00252 | –
CG4271 | DRSC00649 | 0.632 | -0.387 | –
prg | DRSC03324 | -0.258 | -3.56 | –
Nrx-1 | DRSC16184 | 0.897 | 1.11 | –
Prx6a | DRSC00565 | 3.31 | 0.268 | –
Spn55B | DRSC07694 | -0.00723 | -1.48 | 0.951
Spn55B | DRSC21862 | -1.27 | 2.64 | –
Mipp1 | DRSC11223 | -1.66 | 0.95 | -1.13
CG12995 | DRSC19515 | 0.0445 | -1.1 | –
Trxr1 | DRSC18668 | 0.318 | -0.261 | -0.000228
Trxr1 | DRSC22293 | 1.32 | -0.278 | –
p130CAS | DRSC07862 | 0.664 | -1.04 | –
p130CAS | DRSC08257 | -1.4 | 0.41 | –
CG5167 | DRSC15728 | 0.0929 | -0.404 | –
Pi3K68D | DRSC11253 | -0.471 | 0.37 | –
CG11380 | DRSC18632 | 0.753 | 0.907 | –
CG11380 | DRSC23223 | -1.1 | 0.874 | –
Alg14 | DRSC19983 | 2.19 | 0.396 | –
CG15239 | DRSC17972 | 0.282 | 0.684 | –
CG3408 | DRSC10360 | -1.19 | -2.55 | –
LanB2 | DRSC11208 | -0.74 | 0.776 | –
RpL4 | DRSC16833 | 3.12 | 4.98 | –
beat-IV | DRSC14195 | 1.35 | 0.645 | –
beat-IV | DRSC14673 | -0.21 | -3.35 | –
Elba2 | DRSC00731 | -0.486 | -1.53 | –
ppk23 | DRSC20110 | 1.36 | -0.0459 | –
Gr28a | DRSC02290 | -0.328 | 0.096 | –
bru2 | DRSC01246 | 0.00119 | -1.42 | –
bru2 | DRSC01247 | -0.844 | -2.47 | –
bru2 | DRSC01249 | -1.35 | -0.388 | –
bru2 | DRSC02557 | 3.64 | 4.77 | –
Ptpa | DRSC00776 | -0.422 | 0.909 | –
pcx | DRSC18186 | -2.44 | -2.73 | –
pcx | DRSC18187 | -2.78 | 0.773 | –
pcx | DRSC18188 | 0.189 | -2.15 | –
pcx | DRSC18189 | -0.672 | 0.658 | –
pcx | DRSC18190 | 1.11 | -0.14 | –
pcx | DRSC18816 | -0.562 | -0.00339 | –
BomS2 | DRSC21488 | 0.715 | -1.13 | –
Nin | DRSC02007 | 0.185 | 0.899 | –
snky | DRSC09838 | -1.55 | 0.609 | –
CG3638 | DRSC18533 | 0.0151 | 0.135 | –
mRpS30 | DRSC20107 | 2.56 | 2.01 | 0.575
CG32813 | DRSC17948 | -0.468 | -0.135 | –
CG32651 | DRSC18941 | 0.0487 | 1.53 | –
prtp | DRSC19804 | -1.17 | 0.15 | -0.868
prtp | DRSC22494 | 0.289 | 0.105 | –
Ir94b | DRSC21439 | -1.22 | -4.08 | –
CG14070 | DRSC02373 | -1.16 | -0.43 | –
CG6362 | DRSC07413 | 3.4 | -2.03 | –
CG12934 | DRSC06247 | -2.27 | -1.75 | –
Jwa | DRSC02048 | 1.11 | 0.503 | –
Wdr59 | DRSC02771 | 0.527 | -0.103 | –
CG31900 (retired record) | DRSC21835 | 0.619 | 1.19 | –
CG14692 | DRSC14915 | -0.112 | -0.147 | –
Ccdc58 | DRSC10218 | -0.216 | 0.562 | 0.518
